Results from the supplement of paper PMC12067093, “Discovery and optimisation of a covalent ligand for TRIM25 and its application to targeted protein ubiquitination” (Chemical Science, 2025).
This is one part of the list.

By UniProt entry, the sequences of proteins in these tests, tags left out. Where a name states a change or a piece, a line headed by the entry shows the natural chain unless it says otherwise.
UniProt P49585: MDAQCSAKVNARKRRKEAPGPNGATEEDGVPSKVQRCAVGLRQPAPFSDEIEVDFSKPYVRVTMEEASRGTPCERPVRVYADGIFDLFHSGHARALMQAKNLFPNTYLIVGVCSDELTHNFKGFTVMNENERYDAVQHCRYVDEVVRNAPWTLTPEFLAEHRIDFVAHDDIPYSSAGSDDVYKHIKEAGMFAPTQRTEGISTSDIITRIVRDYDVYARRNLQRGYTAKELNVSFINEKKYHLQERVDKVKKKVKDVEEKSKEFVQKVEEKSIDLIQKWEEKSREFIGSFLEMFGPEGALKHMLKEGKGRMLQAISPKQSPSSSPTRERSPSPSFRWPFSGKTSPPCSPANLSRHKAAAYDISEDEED
UniProt Q15154: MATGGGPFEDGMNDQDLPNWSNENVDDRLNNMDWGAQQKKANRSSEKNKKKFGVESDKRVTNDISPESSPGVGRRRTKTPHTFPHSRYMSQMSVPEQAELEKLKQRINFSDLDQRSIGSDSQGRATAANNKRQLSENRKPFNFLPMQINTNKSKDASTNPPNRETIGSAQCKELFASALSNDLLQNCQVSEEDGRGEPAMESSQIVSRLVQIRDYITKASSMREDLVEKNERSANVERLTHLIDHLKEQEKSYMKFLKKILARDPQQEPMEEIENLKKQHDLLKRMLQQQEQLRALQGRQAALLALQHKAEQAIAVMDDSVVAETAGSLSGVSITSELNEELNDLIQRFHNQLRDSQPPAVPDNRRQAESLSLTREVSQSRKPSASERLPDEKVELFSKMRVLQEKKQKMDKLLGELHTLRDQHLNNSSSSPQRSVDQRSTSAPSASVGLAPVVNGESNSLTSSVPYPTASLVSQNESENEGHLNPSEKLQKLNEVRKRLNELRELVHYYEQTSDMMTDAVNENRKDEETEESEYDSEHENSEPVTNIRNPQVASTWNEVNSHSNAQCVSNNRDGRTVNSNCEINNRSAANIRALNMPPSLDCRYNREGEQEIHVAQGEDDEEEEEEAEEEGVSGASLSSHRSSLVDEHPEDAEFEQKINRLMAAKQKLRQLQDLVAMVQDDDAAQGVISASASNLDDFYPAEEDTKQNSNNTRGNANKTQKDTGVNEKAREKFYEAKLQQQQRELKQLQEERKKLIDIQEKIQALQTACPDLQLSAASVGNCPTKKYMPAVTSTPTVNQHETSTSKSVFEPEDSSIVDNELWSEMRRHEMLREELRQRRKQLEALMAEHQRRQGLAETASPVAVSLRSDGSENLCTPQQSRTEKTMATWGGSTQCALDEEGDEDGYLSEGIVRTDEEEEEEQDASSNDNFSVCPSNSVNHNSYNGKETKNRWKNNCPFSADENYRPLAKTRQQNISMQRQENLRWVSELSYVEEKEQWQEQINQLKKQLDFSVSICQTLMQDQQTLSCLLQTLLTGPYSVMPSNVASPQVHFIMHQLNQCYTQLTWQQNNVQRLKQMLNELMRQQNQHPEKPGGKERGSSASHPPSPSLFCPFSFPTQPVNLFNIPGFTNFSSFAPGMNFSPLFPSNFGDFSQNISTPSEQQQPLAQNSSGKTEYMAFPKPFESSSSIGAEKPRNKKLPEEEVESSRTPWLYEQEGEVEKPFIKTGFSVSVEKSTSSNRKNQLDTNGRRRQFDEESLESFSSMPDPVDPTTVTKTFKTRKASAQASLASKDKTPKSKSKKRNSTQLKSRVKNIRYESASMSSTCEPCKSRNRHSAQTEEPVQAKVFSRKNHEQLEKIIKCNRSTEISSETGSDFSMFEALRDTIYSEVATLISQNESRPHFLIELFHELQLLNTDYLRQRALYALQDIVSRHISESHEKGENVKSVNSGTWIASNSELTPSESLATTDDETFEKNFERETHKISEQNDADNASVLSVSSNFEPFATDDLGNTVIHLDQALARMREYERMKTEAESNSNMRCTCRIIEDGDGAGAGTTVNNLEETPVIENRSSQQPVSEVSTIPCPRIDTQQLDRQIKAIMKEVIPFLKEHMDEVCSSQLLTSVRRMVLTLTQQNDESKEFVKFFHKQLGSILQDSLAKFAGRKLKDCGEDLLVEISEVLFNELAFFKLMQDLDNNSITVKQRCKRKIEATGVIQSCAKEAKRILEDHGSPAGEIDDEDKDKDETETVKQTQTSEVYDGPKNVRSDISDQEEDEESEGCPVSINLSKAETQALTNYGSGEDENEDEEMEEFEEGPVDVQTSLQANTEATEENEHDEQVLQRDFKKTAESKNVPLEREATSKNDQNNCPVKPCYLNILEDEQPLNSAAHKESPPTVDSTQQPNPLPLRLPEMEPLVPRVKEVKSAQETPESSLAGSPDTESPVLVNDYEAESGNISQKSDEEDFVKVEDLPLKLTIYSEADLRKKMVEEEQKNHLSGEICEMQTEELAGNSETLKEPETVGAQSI
UniProt Q96HC4: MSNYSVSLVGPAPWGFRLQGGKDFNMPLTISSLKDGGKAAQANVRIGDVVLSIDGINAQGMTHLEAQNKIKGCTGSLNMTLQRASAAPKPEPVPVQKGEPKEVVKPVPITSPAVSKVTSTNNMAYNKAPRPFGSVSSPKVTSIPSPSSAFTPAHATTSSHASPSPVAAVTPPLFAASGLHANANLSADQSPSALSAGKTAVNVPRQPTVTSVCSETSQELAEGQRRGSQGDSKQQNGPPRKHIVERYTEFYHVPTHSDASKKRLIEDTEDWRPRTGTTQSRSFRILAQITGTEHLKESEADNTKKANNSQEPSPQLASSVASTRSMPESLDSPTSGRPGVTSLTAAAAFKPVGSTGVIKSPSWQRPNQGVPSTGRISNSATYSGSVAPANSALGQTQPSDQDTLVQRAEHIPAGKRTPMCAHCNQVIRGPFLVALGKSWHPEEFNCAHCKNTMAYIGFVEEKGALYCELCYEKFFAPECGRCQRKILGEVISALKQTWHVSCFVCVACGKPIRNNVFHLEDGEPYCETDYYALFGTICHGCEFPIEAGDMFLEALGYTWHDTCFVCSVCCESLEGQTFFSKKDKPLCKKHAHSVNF
UniProt Q86U86, whole entry, looked up: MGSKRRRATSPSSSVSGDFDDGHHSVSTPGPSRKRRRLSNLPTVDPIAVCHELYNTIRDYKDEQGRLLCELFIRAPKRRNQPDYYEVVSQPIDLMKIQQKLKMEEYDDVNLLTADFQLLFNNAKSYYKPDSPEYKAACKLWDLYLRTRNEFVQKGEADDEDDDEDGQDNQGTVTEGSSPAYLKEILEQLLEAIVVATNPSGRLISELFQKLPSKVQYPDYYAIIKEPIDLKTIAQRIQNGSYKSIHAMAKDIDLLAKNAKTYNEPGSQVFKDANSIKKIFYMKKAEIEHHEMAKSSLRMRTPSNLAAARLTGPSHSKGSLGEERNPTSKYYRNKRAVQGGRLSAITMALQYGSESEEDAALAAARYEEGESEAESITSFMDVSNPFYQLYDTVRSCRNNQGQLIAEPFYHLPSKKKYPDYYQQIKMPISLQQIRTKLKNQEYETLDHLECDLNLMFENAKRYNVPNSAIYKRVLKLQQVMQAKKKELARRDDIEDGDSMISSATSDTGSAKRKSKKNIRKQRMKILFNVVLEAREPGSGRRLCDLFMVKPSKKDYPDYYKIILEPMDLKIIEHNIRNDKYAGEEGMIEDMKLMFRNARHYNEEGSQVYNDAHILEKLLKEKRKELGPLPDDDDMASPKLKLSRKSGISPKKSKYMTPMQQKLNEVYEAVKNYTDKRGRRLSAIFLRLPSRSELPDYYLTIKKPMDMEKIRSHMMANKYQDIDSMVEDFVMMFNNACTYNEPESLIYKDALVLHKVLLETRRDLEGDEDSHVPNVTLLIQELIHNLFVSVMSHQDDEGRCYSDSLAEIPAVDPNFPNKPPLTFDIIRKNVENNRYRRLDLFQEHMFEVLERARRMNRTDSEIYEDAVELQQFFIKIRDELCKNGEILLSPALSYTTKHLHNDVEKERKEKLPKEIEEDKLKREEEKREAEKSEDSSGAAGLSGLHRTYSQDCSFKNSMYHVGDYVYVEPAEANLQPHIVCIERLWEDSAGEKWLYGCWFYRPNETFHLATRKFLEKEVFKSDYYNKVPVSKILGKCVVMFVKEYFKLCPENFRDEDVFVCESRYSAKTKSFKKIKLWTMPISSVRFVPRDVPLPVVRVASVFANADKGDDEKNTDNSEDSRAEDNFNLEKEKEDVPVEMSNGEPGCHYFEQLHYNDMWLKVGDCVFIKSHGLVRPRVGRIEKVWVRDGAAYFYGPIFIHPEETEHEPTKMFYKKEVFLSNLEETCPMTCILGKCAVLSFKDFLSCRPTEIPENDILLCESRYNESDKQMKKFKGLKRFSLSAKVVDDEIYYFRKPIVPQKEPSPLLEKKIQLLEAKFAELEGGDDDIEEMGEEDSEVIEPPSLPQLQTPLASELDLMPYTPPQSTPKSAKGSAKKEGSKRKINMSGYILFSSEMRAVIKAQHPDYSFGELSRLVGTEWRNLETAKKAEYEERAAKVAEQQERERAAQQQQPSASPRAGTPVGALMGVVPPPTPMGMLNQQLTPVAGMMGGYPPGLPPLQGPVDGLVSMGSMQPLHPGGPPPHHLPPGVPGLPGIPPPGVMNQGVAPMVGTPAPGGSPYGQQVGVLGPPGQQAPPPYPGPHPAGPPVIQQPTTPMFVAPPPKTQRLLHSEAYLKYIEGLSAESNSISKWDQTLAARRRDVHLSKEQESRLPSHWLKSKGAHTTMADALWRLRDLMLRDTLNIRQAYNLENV
UniProt Q9NTI5: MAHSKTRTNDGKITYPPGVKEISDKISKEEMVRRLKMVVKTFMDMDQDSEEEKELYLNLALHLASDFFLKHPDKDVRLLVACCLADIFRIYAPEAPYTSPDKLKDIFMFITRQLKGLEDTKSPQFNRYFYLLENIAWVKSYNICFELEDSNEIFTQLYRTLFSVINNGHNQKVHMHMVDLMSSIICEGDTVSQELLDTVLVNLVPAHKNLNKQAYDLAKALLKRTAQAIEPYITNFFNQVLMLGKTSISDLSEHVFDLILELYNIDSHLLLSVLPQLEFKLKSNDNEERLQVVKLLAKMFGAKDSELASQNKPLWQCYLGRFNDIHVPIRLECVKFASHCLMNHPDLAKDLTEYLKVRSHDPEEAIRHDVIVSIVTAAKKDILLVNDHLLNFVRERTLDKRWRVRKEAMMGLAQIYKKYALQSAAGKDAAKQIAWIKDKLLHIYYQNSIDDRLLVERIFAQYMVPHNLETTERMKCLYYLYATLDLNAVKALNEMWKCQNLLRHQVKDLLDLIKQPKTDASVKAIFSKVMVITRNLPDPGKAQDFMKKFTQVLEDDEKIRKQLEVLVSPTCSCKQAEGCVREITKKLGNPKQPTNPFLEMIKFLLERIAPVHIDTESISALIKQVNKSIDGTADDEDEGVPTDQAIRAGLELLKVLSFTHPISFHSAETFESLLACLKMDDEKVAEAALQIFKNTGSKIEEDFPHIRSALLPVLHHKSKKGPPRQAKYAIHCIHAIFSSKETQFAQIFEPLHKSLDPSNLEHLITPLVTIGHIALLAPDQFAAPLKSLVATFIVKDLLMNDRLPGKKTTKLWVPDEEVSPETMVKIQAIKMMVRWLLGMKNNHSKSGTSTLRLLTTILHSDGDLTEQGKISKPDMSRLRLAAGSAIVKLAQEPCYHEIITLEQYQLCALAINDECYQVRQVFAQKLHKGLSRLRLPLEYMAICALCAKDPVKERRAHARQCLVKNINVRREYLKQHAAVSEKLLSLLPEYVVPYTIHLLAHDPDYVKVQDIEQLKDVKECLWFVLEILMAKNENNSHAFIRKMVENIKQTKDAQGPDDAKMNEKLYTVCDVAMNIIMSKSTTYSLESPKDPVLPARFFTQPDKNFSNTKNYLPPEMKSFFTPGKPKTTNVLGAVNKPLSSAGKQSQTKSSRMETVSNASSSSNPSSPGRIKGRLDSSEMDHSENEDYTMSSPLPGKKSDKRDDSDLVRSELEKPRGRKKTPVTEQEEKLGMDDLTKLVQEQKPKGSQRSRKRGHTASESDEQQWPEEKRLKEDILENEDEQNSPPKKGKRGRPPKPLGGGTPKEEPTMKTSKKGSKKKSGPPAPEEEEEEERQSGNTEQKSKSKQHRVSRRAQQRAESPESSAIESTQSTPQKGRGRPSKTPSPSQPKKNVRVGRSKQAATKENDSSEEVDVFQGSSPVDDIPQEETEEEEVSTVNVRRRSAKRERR
UniProt Q9BRP1: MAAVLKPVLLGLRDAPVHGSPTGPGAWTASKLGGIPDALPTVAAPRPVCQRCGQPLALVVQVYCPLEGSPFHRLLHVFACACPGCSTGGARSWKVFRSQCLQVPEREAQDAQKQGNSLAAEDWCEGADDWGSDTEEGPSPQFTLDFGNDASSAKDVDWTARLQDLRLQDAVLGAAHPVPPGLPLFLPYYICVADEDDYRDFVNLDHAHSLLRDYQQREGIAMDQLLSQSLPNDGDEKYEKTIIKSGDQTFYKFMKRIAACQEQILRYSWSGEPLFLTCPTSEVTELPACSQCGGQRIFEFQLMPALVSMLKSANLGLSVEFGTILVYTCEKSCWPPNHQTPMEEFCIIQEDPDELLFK

Compound: Cc1cc(ccc1-c1ccccc1)C(=O)N1CCCN(CC1)C(=O)CCl [compound 10]
Assay: probe-labelled cysteine peptide fold change vs DMSO (competition) (log2 fold change); higher = less target engagement (more negative = stronger competition)
Details: THP-1, incubation time: 4 h
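Note: competitive profiling in live THP-1 cells: cysteine peptides tagged with an iodoacetamide desthiobiotin (IA-DTB) probe, intensity after compound treatment relative to DMSO-treated cells.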

Target	probe-labelled cysteine peptide fold change (10 µM)	probe-labelled cysteine peptide fold change (50 µM)
PCYT1A_P49585_37_CAVGLR (UniProt P49585)	-0.0934	-0.0815
PCM1_Q15154_876_SDGSENLCTPQQSR (UniProt Q15154)	-0.581	-0.711
PCGF5_Q86SE9_42_TCIVQHFEDSNDCPR (UniProt Q86SE9)	0.0193	0.0542
PDLIM5_Q96HC4_213_QPTVTSVCSETSQELAEGQRR (UniProt Q96HC4)	-0.255	-0.205
PBRM1_Q86U86_50_LSNLPTVDPIAVCHELYNTIR (UniProt Q86U86)	-0.121	0.0706
PDIA6_Q15084_291_RTCEEHQLCVVAVLPHILDTGAAGR (UniProt Q15084)	0.0625	-0.132
PAXX_Q9BUH6_180_RCPGESLINPGFK (UniProt Q9BUH6)	-0.248	-0.761
PDS5A_Q29RF7_430_YCLHGEAGK (UniProt Q29RF7)	0.0514	0.0931
PDS5B_Q9NTI5_943_LPLEYMAICALCAK (UniProt Q9NTI5)	0.581	0.468
PDCD2L_Q9BRP1_49_LGGIPDALPTVAAPRPVCQR (UniProt Q9BRP1)	-0.457	-0.894
PDXK_O00764_112_LVYVCDPVLGDKWDGEGSMYVPEDLLPVYK (UniProt O00764)	-0.0335	-0.0929
PCYOX1_Q9UHG3_462_LYYLNGIECAASAMEMSAIAAHNAALLAYHR (UniProt Q9UHG3)	0.129	0.308
PDLIM5_Q96HC4_420_TPMCAHCNQVIR (UniProt Q96HC4)	0.0871	-0.199
PCM1_Q15154_783_IQALQTACPDLQLSAASVGNCPTK (UniProt Q15154)	-0.192	-0.821

2 entries from above, in markdown:

| Target | probe-labelled cysteine peptide fold change (10 µM) | probe-labelled cysteine peptide fold change (50 µM) |
| --- | --- | --- |
| PBRM1_Q86U86_50_LSNLPTVDPIAVCHELYNTIR (UniProt Q86U86) | -0.121 | 0.0706 |
| PDCD2L_Q9BRP1_49_LGGIPDALPTVAAPRPVCQR (UniProt Q9BRP1) | -0.457 | -0.894 |
